Assay results from paper doi:10.1101/2025.09.09.675193.
Substitutions are numbered along the chain they refer to. These are yes or no findings as the source states them, for the method shown. Binding seen in cells or lysates may run through a third protein. Some results given as binding are weak or reduced against the parent protein; the word gives no strength. For part of these data: Tags and fused reporters may be left off the sequences shown.

Tests used:
[1] = target: T1, DDIAS-pT775 peptide, biotinylated (human); assay: pull-down
T1 sequence (peptide, biotin on the N terminus; phosphothreonine at Thr775 ([pThr])): SGSGSQDFVPCSQSTPIS

Halo-DDIAS T775A (human) = target: T2, Halo-DDIAS T775A (human) (UniProt Q8IXT1); assay: co-IP
T2 sequence: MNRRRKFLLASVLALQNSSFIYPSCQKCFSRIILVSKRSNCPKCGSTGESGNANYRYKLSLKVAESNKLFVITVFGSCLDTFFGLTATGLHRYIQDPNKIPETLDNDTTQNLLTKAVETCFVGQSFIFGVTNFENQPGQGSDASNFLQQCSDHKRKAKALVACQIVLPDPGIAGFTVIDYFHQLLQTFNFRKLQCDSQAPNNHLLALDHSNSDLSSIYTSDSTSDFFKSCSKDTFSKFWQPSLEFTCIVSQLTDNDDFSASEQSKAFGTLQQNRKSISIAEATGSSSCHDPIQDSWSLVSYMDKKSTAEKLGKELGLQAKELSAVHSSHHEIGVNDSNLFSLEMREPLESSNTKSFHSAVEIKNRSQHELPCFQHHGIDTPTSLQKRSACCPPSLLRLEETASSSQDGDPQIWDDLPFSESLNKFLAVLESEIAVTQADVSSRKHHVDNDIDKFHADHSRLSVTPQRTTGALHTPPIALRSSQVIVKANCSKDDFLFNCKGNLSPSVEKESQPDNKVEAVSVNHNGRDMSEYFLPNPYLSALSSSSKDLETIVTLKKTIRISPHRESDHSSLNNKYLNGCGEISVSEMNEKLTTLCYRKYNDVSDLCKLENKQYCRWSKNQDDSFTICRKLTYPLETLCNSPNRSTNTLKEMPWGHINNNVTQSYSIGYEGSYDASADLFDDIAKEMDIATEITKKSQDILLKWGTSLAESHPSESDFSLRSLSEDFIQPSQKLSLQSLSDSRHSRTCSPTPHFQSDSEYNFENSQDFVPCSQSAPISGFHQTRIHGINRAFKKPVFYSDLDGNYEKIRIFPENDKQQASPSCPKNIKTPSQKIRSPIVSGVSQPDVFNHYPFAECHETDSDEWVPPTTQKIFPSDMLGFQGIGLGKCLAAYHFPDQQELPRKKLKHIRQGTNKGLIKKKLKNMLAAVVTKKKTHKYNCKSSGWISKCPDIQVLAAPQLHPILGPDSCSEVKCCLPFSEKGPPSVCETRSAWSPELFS

[2] = target: T3, Halo-tagged DDIAS, wild type (human) (UniProt Q8IXT1); assay: co-IP
T3 sequence: T2 sequence with A775T

In the case of “PLK1, endogenous in 293FT cells (from UniProt P53350 1-603) (enzyme)”, the binding [1] is reported as “binds”, the binding (Halo-DDIAS T775A (human)) is reported as “binds weakly” and the binding [2] is reported as “binds”.
